The data set is described as follows: general procedure: Fmoc solid-phase peptide synthesis; Rink amide 0.52 mmol/g; DIC/HOBt.

Strings that start with PEPTIDE1 are HELM notation: dots part the residues, brackets hold end groups and non-standard residues.

In the case of “PEPTIDE1{[ac].I.W.L.T.A.L.K.F.L.G.K.N.L.G.K.L.A.K.Q.Q.C.A.K.L.[am]}$$$$V2.0”, under “purification step”, the step yield result is “about 65%”. The same substance showed a crude mass (whole synthesis) of 100 mg. The crude yield entry (whole synthesis, scale of the general procedure 160 mg of Rink amide resin) is recorded as “about 50%”.
